Here are results for 1 substance from doi:10.1101/2025.02.21.639304.

Sequences of proteins named here, by UniProt entry; tags and fusion partners are left off. A change or cut given only in a name is not applied to a line headed by its entry.
UniProt O60674: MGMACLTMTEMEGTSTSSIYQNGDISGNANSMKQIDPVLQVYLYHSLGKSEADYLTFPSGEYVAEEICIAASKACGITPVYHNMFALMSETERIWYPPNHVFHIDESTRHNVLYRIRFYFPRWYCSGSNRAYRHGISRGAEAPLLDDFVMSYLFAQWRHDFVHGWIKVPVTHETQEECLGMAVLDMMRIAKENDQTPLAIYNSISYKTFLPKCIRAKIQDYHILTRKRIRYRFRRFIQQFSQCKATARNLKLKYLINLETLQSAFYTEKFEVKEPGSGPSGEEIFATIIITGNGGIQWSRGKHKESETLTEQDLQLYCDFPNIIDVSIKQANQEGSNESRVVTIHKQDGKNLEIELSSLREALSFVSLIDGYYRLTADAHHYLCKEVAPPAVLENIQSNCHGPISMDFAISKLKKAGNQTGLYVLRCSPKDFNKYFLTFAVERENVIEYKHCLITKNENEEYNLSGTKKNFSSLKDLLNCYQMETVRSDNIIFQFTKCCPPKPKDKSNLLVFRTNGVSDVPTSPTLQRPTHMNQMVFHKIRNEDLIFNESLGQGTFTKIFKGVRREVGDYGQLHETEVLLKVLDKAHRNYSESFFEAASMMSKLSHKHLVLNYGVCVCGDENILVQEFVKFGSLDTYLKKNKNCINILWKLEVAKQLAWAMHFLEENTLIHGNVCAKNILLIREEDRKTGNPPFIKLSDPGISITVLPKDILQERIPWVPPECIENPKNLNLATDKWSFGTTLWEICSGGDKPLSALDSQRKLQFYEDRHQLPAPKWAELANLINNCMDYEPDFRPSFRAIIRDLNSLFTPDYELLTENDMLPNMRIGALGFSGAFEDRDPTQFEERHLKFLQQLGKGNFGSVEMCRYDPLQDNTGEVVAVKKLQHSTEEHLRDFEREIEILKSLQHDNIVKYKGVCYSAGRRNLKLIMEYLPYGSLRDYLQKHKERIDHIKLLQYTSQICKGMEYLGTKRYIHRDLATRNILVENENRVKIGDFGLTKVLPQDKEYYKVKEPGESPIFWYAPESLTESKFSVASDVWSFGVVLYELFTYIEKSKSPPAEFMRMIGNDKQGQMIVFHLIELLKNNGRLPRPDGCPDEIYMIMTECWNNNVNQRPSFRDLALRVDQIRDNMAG
UniProt P42224: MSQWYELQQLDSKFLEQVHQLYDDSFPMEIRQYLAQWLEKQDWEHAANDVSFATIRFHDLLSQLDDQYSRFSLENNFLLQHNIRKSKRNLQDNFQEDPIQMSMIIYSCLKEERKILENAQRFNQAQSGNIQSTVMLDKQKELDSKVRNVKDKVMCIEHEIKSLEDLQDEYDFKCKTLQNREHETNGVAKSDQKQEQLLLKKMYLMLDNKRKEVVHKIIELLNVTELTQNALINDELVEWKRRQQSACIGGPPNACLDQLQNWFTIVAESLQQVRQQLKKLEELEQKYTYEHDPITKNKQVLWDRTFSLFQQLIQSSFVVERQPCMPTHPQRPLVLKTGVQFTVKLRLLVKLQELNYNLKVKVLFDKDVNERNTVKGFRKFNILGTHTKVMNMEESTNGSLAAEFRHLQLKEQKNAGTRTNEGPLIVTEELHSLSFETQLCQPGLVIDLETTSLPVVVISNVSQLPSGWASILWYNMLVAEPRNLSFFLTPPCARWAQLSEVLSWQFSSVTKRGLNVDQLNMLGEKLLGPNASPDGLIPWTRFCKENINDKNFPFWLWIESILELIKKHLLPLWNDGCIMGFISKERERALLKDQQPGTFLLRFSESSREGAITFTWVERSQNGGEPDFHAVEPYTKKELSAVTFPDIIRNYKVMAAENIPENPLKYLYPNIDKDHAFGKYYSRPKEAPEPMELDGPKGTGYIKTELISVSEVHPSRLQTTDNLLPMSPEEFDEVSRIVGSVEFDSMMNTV

For the assay, the target named is JAK2 (human (endogenous in TF-1, F36P)) (UniProt O60674). Put plainly: co-IP.

No constants are given. Whether binding was seen depends on the method and setting. Binding seen in cells or lysates may run through a third protein. Some binding calls cover weakened binding; strength is not graded here.

In the case of STAT1 (from UniProt P42224 1-750), the binding result is reported as “binds”.
